The values below come from patent publication US20030140381.

Chains of the proteins cited; added tags and fusions are not shown. A line that says so, or that is headed by a name, gives the form on record, which may keep a tag or linker.
ZmABI4 (maize ABI4, AP2-domain transcription factor) (Zea mays), one chain, as listed by the source: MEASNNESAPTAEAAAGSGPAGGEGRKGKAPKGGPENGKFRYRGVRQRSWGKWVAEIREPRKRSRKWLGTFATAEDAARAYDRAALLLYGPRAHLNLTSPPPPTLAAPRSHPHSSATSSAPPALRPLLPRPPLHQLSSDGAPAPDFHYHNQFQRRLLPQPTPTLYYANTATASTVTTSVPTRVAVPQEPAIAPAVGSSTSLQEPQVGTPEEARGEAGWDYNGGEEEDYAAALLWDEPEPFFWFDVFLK

Construct, isoform or probe ends are uncertain for at least one entry.

The series deals with ZmABI4 (maize ABI4, AP2-domain transcription factor) (Zea mays). The experiment in a line: EMSA. The conditions noted are these: purified recombinant protein. For orientation: A gel shift assay detects complexes by their altered migration in electrophoresis.

On to “AGGAGTAATCCTAGTACAGTAGTACTACGTAGTAAAAATCTGTTGGACGATCGATCCAAGTGAAGCAGTGCATCAAAGAACGCTGCACACATCGATCTCGATCCTGTCCCTGCATGCATGCACGCACCGAGCAACGAAGCGCTGCACACAATGACACAAGCCAGTAAGTCAGAAGTCGATTGCTCCATCAACCGTATACTAGCTTAATTCCGCAATGACTCCGATGATCTACATGCTGGATTCCGCAATGACTCCGATGATCTACAGCATGCATGGCACACTCCCCCGGCCTCTACCACACCAACCAACAAGAATCTGGCTTTTTAAACTAGGTGAGAAAGATTCAAACACACCCGTTTTTATACGTTTTTGCAAAATTCTGAAAAAACTAGAAAACTGTTGATAGTAATTTTTGCCAGTTTCTCATAATCCAAAAAGAAACAAATAAAATCATTTACTGACACCCGAATACTGTATCAATTCTGGCTCGGAATCTACTAGATTTTATAGAAATTACAGACAAAAACTCTCTTTTTTTAATTCCGAAACTGATCTAAAGCTGCTCGCTGTACTGCACTATGCACTCTCTCACCTCCCTTTATATTTGACCACCGCCCCTCTCCACCAAGCGCATCCACCTCGACCTCCATCCCTAGCGCTCTCGCCCCAAAGCAC (double strand) [ZmABI4 upstream fragment 675 bp (-778 to -104)]”, for which the binding result is given as “binds”.
